Patent publication US20230095167A1 (UNIVERSITEIT MAASTRICHT, published 2023)
These are yes or no findings as the source states them, for the method shown. Some entries that bind do so weakly or less than the wild type.

T1: recombinant NT-proBMP10 (22-312) (human, UniProt O95393 22-312)
T1 construct: In-house construct; also called pro-peptide BMP10; BMP10(312)
T1 sequence: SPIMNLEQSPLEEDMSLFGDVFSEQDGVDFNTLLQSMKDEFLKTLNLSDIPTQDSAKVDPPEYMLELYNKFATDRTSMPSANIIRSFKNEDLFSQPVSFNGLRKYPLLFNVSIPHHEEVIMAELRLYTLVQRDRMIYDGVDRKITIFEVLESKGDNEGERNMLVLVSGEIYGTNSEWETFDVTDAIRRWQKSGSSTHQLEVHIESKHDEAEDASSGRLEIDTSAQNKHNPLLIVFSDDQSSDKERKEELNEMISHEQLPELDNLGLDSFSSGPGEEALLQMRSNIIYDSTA


How the values were obtained:
[1] = molecular target: T1, recombinant NT-proBMP10 (22-312); assay: SPR kinetic characterisation, summary in the description
[2] = molecular target: T1, recombinant NT-proBMP10 (22-312); assay: SPR Biacore 8K, 37°C

| Binder | binding [1] | binding [2] |
| --- | --- | --- |
| MAB<BMP10>rRb-2H8 HC7/LC6 (p10qv/p10qw)-IgG(SPA) (antibody, V domains shown, Recombinant rabbit monoclonal IgG; also called clone 2H8; VH-6/VL-6) VH: QSVEESGGRLVTPGTPLTLTCTASAFSLSRYVMSWVRQAPGKGLEFIGFINASGSTSYASWAKGRFTISKTSTTVDLKMTSLTTEDTATYFCATGNLWGPGTLVTVSS VL: DIVMTQTPSSVSGPVGGTVTINCQASQNIYSNLAWYQQKPGQPPKLLIYYASTLVSGVPSRFKGSGSGTQFTLTISDLECANAATYYCQSKDGPTSSTYGAFGGGTEVVVR | binds | binds |
| MAB<BMP10>rRb-3H8 HC3/LC3 (p10qx/p10qy)-IgG(SPA) (antibody, V domains shown, Recombinant rabbit monoclonal IgG; also called clone 3H8; VH-7/VL-7) VH: QSVEESGGRLVTPGTPLTLTCTASGFSLSKYDMSWVRQAPGKGLEWIGAIGGRGVTDYTTWAKGRFTISKTATTVDLKMTSPTTEDTATYFCVRALAGDTLWGPGTLVTVSS VL: AQVLTQTASPVSAAVGSTVTINCQASQNIYKYNNLAWYQQKPGQPPKRLIYEASKLASGVPSRFSGSGSGTQFTLTISGVQCEDAATYYCQGTFECSSADCFGFGGGTEVVVK | – | binds |
| MAB<BMP10>rRb-9E7 HC12/LC7 (p10rw/p10rx)-IgG(SPA) (antibody, V domains shown, Recombinant rabbit monoclonal IgG; also called clone 9E7) VH: QSLEESGGGLVQPEGSLTLTCIASAFSFSSGYYMCWVRQAPGKGLEWIACIYAGSSGTTYYASWAKGRFTISKASSTTVTLLMTSLTAADTATYFCARGPGASGYRLGLWGPGTLVTVSS VL: DVVMTQTPASVSEPVGGTVTIKCQASEDIYRLLAWYQQKPGQPPKLLIYDASDLASGVPSRLSGSGSGTEYTLSISDLECADAATYYCQQGYYISGGDSFGGGTEVVVK | binds | binds |
| 11C10 (antibody, V domains shown, Rabbit monoclonal IgG; also called clone 11C10; VH-3/VL-3) VH: QSLEESGGRLVTPGTALTVTCTVSGIDLSRNLMSWVRQAPGEGLEWIGSINFRNITWYASWAKGRFTISKTSTTVDLRISSPTTEDTATYFCARGVYVNSNGYYSLWGQGTPVTVSS VL: DIVMTQTPASVEAAVGGTVTINCQASQSVSNLLAWYQQKPGQPPKLLIYGASKLESGVPSRFKGSGSGTQFTLTINDLECDDAATYYCQTYWGGDGTSYLNPFGGGTEVVVK | binds | binds |
| MAB<BMP10>rRb-8G5 HC3/LC5 (p10qz/p10ra)-IgG(SPA) (antibody, V domains shown, Recombinant rabbit monoclonal IgG; also called clone 8G5; VH-8/VL-8) VH: QSLEESGGDLVKPGASLTLTCTASGFSFSSSYWICWVRQAPGKGLEWIACIYAGSSDITYYASWAKGRFTVSKTSSPTVTLQMTSLTAADTATYFCARGRYYVDGYADYYPGDFNLWGPGTLVTVSS VL: DIVMTQTPASVEAAVGGTVTIKCQASQSISSYLAWYQQKSGQPPKLLIYLASTLESGVPSRFKGSGSGTEFTLTISDLECADAATYYCQSYYYSSSSSYGSAFGGGTEVVVK | – | binds |
| MAB<BMP10>rRb-14C8 HC2/LC3 (p10th/p10ti)-IgG(SPA) (antibody, V domains shown, Recombinant rabbit monoclonal IgG; also called clone 14C8; VH-5/VL-5) VH: QSVEESGGRLVTPGTPLTLTCTASGIDLSRYAMTWVRQAPGKGLEWIGIIGASSGTWYASWAKGRFTIAKTSTTVDLRITSPTTEDTATYFCARDNGDSKDYAFDPWGPGTLVTVSS VL: IDMTQTPSPVSAAVGDTVTINCQASENIYSFLAWYQQKPGHSPNLLIYFASKLVSGVPSRFKGSGSGTQFTLTISDVQCDDAATYYCQQTYTYSNGDNPFGGGTEVVVK | binds | binds |
